# Laboratory results from patent publication US8357365B2, “Granulysin peptides and methods of use thereof” (The Regents of the University of California, priority 2005, dated 2013).
# For at least one compound, name, drawing or mass did not settle the structure. Some of these results come from one statement about several compounds together.
# Test system: Propionibacterium acnes strain ATCC 6919
# Assay: CFU assay of antimicrobial activity against P. acnes
# Type: cell-based
# Conditions: comparison with widely used antibiotics (FIG. 3C)
# Method: CFU assay. The CFU assay was performed as described previously (Ernst et al., (2000) Immunol 165:7102-7108). Propionibacterium acnes strain ATCC 6919 (American Type Cell Culture, Manassas, Va.) was grown under anaerobic conditions in Reinforced Clostridial Medium (Oxoid, Basingstroke, England) for two days and collected in mid-log phase. The bacteria were washed three times with the assay buffer, 10 mM sodium phosphate, pH 7.2, supplemented with 0.03% trypticase soy broth (TSB, Becton-Dickinson, Cockeysville, Md.), and enumerated by applying a conversion factor of 7.5×10^7 bacteria/mL=1 OD unit at 600 nm. Various concentrations of granulysin or granulysin peptides were incubated with 3.75×10^5 bacteria in a final volume of 30 μL at 37° C. for four hours. […] Plates were incubated for four days at 37° C. under anaerobic conditions, then individual colonies were counted and the number of CFU per tube was calculated.
row,Compound,kind of antimicrobial activity against P. acnes (bacteriostatic or bactericidal)
1,"CCC[C@@H]1C[C@@H](C(=O)N[C@@H]([C@H]2O[C@H](SC)[C@H](O)[C@@H](O)[C@H]2O)[C@H](C)Cl)N(C)C1 [clindamycin, reference compound]",bacteriostatic
2,"CN(C)[C@@H]1C(O)=C(C(N)=O)C(=O)[C@@]2(O)C(O)=C3C(=O)c4c(O)cccc4[C@@](C)(O)[C@H]3C[C@@H]12 [tetracycline, reference compound]",bacteriostatic

# Same assay, conditions: non-helix-loop-helix peptides, 0-100 μM (FIG. 1C)
row,Compound,reduction of the number of viable P. acnes [log]
1,GRDYRTSLTIVQKLKKMVDK [1-20],< 1
2,KMVDKPTQRSVSNAATRVSR [16-35],< 1
3,RNFMRRYQSRVIQGLVAGET [46-65],< 1
4,VAGETAQQISEDLR [61-80],< 1
